These are yes or no findings as the source states them, for the method shown. Some binding calls cover weakened binding; strength is not graded here. For part of these data: Tags and fused reporters may be left off the sequences shown.

By UniProt entry, the sequences of proteins in these tests, tags left out. Where a name states a change or a piece, a line headed by the entry shows the natural chain unless it says otherwise. Residues count along the entry.
UniProt P16109, residues 42-771: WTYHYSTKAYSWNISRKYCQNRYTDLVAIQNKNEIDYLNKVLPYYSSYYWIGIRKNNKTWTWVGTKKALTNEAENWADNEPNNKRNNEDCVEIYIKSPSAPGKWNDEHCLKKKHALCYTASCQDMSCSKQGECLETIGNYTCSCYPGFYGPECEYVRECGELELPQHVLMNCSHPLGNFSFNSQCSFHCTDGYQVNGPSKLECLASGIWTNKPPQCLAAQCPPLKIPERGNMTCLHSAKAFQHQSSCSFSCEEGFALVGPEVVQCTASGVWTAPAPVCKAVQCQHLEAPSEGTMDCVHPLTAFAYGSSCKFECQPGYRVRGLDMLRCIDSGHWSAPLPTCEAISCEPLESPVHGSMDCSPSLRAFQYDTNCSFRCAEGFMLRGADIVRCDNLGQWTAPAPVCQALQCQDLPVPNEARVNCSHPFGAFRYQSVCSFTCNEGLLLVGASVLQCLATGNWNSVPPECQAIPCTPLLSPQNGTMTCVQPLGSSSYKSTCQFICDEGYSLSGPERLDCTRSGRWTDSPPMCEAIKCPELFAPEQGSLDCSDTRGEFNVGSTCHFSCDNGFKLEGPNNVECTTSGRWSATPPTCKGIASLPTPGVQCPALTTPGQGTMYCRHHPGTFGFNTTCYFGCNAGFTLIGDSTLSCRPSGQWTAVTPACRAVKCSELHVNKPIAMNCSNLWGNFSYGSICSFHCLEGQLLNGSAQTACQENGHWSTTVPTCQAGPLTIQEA
UniProt P08670: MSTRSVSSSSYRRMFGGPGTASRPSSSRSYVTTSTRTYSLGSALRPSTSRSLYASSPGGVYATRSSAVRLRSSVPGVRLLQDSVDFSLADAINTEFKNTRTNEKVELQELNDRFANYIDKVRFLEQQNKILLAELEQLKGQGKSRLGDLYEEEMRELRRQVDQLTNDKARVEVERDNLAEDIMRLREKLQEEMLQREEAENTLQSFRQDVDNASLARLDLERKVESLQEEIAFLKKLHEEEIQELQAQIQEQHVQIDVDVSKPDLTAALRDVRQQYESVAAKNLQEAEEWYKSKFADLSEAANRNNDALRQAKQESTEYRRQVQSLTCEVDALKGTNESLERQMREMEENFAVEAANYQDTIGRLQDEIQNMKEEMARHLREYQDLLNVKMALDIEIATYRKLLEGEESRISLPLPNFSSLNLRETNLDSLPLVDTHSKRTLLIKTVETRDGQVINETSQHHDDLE

Assay [1] has as its target P-selectin/Fc chimeric protein (UniProt P16109). Description: summary of SPR of Example 1.
For assay [2] the target is unchanged. Description: SPR (BIACore), response (RU) against concentration (M); text: binding to immobilized P-sel/Fc, IgG as control.
Assay [3] has the same target. Description: SPR (BIACore) (FIG. 6C). Background: Surface plasmon resonance follows binding to a sensor surface in real time, without labels.
For assay [4] the target is unchanged. Description: summary of ELISA and SPR of Example 1. On the technique in general: ELISA stands for enzyme-linked immunosorbent assay.
Assay [5] has the same target. Description: ELISA binding saturation curve (FIG. 6B).
The target is the same in assay [6]. The assay is described as follows: ELISA, wells coated with P-selectin/Fc 10 µg/mL, anti-His/HRP detection.
Assay [7] has the same target. Description: ELISA, wells coated with P-selectin/Fc 10 µg/mL, srhVim added at rising concentrations, detection with anti-His/HRP.
Assay [8] shares this target. Description: ELISA (FIG. 15C).
Assay [9] shares this target. The assay is described as follows: ELISA, wells coated with P-selectin/Fc 10 µg/mL, HRP anti-polyhistidine detection.
For assay [10] the target is unchanged. Description: ELISA, wells coated with P-selectin/Fc 10 µg/mL in DPBS, blocked with 1% BSA, rhVim added at rising concentrations, detection with HRP-conjugated anti-polyhistidine antibody.
Assay [11] deals with recombinant human vimentin (rhVim), expressed from pQE-30 in E. coli M15 (human) (UniProt P08670). Description: BLI, rhVim immobilized. (In general: In BLI a coated tip is dipped into the sample, and binding shifts an interference pattern.)
Assay [12] shares this target. Description: SPR (BIACore), rhVim immobilized.
Assay [13] shares this target. Description: BLI (Octet Red 384), rhVim immobilized on amine reactive sensors.
The target is the same in assay [14]. Description: SPR (BIACore), rhVim immobilized on CM5 chip; the text says there was no binding.

For the molecule “rod domain of human vimentin (amino acids 96-407), expressed from pET30 in E. coli (from UniProt P08670 96-407)”, the binding result in assay [1] and in assay [2] was “binds” throughout.

For “soluble recombinant human vimentin (srhVim), full length, expressed from pET30 in E. coli (from UniProt P08670 2-466)”, the binding result in [3], in assay [4], in assay [5], in assay [6], in assay [2] and in assay [7] was “binds” in each case.

In the case of “recombinant human vimentin (rhVim), expressed from pQE-30 in E. coli M15 (from UniProt P08670 2-466)”, the binding result in assay [8], in assay [9] and in assay [10] was “binds” in each case.

Turning to “P-selectin/Fc chimeric protein (from UniProt P16109 42-771) (Fc fusion)”, the binding entry in assay [11] and in [12] was “binds” each time.

B1: E-selectin/Fc (Fc fusion, UniProt P16581 22-556, looked up, not shown: a dimerising Fc or GST)
chain: WSYNTSTEAMTYDEASAYCQQRYTHLVAIQNKEEIEYLNSILSYSPSYYWIGIRKVNNVWVWVGTQKPLTEEAKNWAPGEPNNRQKDEDCVEIYIKREKDVGMWNDERCSKKKLALCYTAACTNTSCSGHGECVETINNYTCKCDPGFSGLKCEQIVNCTALESPEHGSLVCSHPLGNFSYNSSCSISCDRGYLPSSMETMQCMSSGEWSAPIPACNVVECDAVTNPANGFVECFQNPGSFPWNTTCTFDCEEGFELMGAQSLQCTSSGNWDNEKPTCKAVTCRAVRQPQNGSVRCSHSPAGEFTFKSSCNFTCEEGFMLQGPAQVECTTQGQWTQQIPVCEAFQCTALSNPERGYMNCLPSASGSFRYGSSCEFSCEQGFVLKGSKRLQCGPTGEWDNEKPTCEAVRCDAVHQPPKGLVRCAHSPIGEFTYKSSCAFSCEEGFELHGSTQLECTSQGQWTEEVPSCQVVKCSSLAVPGKINMSCSGEPVFGTVCKFACPEGWTLNGSAARTCGATGHWSGLLPTCEAPTESNIP
In the case of B1, the results for the binding result in assay [13] and in assay [14] were “no binding (tested: 0-1,000 nM)” and “no binding (tested: 10-1,000 nM)”, respectively.
